Laboratory results reported in PMC12394641.
Results are given in words; binding and its absence hold for the method and conditions named. Binding seen in cells or lysates may run through a third protein. Some entries that bind do so weakly or less than the wild type. Each block holds one substance with its values, some of them ahead of it.

Sequences of proteins named here, by UniProt entry; tags and fusion partners are left off.
UniProt O43474: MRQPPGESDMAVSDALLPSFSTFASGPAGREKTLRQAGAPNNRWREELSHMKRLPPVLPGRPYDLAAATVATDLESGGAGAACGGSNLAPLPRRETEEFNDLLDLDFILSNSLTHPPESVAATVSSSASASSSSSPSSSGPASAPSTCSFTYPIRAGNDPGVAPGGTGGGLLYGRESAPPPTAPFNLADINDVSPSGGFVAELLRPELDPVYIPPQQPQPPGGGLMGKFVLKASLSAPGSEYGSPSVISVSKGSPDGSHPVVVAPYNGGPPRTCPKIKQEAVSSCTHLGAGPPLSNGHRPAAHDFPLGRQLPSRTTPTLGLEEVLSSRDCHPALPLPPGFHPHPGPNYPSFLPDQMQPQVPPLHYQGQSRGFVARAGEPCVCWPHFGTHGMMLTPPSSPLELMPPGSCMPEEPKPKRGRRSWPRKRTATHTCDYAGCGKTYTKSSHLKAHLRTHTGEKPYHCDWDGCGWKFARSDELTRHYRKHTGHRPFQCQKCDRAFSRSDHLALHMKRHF
UniProt Q92922: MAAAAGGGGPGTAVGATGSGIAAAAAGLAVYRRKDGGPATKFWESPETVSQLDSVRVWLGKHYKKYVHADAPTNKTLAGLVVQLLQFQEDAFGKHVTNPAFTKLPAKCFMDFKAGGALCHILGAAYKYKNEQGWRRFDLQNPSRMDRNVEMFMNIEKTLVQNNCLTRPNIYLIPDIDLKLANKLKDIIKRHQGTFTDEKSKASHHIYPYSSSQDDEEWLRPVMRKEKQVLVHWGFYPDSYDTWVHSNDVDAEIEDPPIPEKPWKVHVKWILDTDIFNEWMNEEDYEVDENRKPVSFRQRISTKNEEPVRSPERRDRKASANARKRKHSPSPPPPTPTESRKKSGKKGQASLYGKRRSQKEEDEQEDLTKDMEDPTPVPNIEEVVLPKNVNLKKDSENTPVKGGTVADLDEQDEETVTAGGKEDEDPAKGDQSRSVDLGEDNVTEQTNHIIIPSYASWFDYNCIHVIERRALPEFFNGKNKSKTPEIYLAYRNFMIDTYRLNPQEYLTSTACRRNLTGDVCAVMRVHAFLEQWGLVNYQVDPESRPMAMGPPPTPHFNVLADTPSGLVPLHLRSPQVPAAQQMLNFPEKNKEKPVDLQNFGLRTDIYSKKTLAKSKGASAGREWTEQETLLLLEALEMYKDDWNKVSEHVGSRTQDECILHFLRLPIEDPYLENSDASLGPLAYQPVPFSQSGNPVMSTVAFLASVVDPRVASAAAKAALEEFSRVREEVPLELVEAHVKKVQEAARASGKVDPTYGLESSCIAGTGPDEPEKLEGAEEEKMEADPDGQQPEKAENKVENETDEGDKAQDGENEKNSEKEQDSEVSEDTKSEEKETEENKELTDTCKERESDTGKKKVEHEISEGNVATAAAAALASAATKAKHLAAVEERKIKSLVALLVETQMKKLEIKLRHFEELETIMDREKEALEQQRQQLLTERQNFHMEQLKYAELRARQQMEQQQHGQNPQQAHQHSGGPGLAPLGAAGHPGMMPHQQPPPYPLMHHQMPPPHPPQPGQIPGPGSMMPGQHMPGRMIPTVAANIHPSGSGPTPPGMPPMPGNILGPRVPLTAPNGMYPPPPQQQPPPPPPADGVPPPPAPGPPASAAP
UniProt Q12824: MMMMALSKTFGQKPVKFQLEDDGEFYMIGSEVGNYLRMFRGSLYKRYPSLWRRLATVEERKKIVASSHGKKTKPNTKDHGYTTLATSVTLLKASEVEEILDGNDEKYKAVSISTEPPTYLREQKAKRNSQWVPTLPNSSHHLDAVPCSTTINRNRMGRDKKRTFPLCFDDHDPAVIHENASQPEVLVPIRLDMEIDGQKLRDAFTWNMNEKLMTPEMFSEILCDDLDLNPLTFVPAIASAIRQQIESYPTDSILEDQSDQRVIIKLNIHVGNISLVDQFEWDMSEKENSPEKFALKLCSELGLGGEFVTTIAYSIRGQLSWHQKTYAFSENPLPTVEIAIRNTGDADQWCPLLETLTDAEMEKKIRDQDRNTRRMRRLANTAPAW
UniProt Q9ULG1: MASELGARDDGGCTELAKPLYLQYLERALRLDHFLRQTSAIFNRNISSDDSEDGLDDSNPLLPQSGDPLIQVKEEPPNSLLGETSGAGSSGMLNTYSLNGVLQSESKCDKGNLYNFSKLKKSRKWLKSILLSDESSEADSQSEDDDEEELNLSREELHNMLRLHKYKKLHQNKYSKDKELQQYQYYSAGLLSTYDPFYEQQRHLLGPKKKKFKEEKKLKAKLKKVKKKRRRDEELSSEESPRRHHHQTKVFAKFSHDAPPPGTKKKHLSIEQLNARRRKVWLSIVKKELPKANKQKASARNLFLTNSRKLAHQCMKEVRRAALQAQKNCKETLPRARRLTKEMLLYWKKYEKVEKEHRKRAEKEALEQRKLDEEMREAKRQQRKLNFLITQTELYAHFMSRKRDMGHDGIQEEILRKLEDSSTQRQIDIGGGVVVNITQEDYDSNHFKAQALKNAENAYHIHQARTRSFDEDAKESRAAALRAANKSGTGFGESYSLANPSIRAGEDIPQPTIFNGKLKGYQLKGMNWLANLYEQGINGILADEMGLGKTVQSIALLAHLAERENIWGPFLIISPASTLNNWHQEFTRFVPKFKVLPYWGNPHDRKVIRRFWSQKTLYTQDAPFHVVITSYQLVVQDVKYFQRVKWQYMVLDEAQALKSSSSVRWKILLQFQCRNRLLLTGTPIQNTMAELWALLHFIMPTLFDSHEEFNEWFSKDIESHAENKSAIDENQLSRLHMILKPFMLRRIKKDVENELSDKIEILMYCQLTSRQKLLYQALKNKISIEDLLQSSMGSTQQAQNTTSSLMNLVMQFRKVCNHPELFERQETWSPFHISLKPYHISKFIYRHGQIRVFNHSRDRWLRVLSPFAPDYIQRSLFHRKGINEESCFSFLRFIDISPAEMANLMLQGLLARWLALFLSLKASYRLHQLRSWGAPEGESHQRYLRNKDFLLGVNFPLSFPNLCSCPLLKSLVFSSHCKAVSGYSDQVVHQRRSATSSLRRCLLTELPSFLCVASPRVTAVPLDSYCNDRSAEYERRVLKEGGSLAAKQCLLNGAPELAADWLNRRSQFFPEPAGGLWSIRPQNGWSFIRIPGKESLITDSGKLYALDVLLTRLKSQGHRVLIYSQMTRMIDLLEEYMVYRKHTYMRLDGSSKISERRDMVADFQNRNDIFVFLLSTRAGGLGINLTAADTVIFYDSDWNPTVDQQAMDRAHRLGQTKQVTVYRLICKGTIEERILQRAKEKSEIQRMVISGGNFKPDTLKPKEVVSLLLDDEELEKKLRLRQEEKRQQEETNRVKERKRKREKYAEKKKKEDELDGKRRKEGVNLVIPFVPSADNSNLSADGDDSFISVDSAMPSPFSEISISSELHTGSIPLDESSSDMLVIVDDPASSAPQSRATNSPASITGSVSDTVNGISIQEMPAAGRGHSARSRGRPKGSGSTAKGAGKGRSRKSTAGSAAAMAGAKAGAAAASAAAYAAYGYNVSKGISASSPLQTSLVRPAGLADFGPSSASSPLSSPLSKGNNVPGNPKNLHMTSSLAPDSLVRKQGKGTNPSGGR
UniProt O96019: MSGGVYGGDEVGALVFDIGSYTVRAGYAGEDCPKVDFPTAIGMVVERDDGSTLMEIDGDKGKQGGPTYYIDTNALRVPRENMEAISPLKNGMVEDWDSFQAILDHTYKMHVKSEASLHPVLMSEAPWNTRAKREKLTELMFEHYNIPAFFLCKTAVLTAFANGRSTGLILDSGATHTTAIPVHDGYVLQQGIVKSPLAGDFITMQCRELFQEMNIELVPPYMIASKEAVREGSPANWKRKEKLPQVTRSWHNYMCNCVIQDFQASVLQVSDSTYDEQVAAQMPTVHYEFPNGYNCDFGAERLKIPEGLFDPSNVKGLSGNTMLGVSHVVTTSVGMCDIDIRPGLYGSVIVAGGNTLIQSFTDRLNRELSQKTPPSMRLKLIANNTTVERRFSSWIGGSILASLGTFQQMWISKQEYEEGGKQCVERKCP
UniProt Q15532: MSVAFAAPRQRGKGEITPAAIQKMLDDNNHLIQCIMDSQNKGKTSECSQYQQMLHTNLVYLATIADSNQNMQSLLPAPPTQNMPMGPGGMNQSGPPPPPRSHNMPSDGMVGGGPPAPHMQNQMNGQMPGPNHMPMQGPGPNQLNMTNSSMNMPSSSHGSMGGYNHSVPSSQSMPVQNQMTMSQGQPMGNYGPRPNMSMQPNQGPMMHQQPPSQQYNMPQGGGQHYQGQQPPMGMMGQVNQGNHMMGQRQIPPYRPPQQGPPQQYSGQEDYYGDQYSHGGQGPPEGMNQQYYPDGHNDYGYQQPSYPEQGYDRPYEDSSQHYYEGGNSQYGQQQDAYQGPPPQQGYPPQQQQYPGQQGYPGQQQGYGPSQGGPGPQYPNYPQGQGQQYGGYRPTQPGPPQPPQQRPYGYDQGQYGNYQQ
UniProt P25490: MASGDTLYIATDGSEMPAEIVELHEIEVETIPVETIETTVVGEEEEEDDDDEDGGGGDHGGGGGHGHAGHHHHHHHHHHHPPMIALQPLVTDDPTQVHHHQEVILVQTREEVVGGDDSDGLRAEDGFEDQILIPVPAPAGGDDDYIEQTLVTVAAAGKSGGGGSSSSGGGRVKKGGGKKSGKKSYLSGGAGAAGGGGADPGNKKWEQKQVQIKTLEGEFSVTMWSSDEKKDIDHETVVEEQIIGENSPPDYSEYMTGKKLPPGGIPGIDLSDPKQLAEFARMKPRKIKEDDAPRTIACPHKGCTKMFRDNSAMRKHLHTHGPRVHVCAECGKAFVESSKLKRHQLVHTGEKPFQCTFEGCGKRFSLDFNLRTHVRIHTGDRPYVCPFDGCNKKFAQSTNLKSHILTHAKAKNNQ
UniProt P51532: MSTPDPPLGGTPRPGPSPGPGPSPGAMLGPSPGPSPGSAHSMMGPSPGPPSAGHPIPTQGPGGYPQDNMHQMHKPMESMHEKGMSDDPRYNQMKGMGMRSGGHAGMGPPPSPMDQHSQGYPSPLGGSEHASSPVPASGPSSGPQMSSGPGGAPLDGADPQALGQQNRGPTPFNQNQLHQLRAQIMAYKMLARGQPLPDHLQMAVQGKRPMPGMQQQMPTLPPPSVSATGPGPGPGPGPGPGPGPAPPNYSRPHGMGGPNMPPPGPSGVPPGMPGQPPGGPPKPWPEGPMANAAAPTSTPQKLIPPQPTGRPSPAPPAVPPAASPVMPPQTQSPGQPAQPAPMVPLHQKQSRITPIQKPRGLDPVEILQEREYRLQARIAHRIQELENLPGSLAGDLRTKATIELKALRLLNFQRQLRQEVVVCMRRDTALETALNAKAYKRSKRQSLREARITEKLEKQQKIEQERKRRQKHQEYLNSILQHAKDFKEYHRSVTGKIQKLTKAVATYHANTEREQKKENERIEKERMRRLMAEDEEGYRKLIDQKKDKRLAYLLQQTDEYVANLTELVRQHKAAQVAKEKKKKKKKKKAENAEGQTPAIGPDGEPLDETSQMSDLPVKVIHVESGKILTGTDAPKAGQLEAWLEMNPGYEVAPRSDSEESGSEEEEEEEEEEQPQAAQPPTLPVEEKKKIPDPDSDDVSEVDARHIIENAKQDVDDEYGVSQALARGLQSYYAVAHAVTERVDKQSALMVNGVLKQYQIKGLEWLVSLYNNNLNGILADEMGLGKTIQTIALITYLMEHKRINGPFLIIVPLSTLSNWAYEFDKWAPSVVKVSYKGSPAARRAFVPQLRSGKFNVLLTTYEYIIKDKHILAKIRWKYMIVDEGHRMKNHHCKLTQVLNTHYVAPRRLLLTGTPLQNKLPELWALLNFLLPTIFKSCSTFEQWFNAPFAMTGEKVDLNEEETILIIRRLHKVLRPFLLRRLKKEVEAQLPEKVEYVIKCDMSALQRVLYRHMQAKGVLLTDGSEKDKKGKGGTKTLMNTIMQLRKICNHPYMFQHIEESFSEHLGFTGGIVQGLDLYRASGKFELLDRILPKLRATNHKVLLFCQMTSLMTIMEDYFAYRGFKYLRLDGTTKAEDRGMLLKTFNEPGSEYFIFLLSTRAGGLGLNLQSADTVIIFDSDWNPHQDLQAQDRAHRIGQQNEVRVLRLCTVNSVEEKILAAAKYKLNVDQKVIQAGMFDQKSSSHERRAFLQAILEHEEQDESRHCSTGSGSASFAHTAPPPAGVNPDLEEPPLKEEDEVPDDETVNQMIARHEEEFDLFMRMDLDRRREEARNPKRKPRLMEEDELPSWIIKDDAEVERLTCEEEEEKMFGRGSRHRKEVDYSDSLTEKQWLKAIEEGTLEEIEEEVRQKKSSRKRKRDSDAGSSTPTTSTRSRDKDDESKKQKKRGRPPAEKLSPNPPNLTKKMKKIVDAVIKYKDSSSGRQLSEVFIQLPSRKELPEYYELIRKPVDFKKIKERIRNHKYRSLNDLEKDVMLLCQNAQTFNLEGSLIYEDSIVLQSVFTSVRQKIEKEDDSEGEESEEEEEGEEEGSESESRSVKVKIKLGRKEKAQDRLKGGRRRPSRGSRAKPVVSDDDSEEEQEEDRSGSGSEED

How the values were obtained:
Assay in all cases: co-IP; endogenous proteins in whole-cell extracts of HCT116 cells (basal, or transduced with sgCtrl or sgACTL6A; KLF4 IP also in LS174T and LoVo); antibodies against SMARCB1, SMARCC1, INO80 or KLF4 (5-10 ug) on Dynabeads overnight at 4 C; lysis and wash buffer 50 mM Tris-HCl pH 7.5, 150 mM NaCl, 1% NP-40, 0.1% Na-deoxycholate; Western blotting
[1] = biological target: KLF4 (human (endogenous in HCT116, LS174T, LoVo)) (UniProt O43474)
[2] = biological target: SMARCC1 (human (endogenous in HCT116)) (UniProt Q92922)
[3] = biological target: SMARCB1 (human (endogenous in HCT116)) (UniProt Q12824)
[4] = biological target: INO80 (human (endogenous in HCT116)) (UniProt Q9ULG1)

Substance: ACTL6A (from UniProt O96019 1-429)
- binding [1]: binds
- binding [2]: binds
- binding [3]: binds

Substance: SMARCC1 (from UniProt Q92922 1-1105)
- binding [1]: binds
- binding [4]: no binding

Substance: SS18 (from UniProt Q15532 1-418)
- binding [2]: binds
- binding [4]: no binding

Substance: YY1 (from UniProt P25490 1-414)
- binding [2]: no binding
- binding [3]: no binding

The next lines start with the values.

- binding [1]: binds
- binding [3]: binds
- binding [4]: no binding
Substance: SMARCA4 (from UniProt P51532 1-1647)

- binding [1]: binds
- binding [4]: no binding
Substance: SMARCB1 (from UniProt Q12824 1-385)
